Where a name gives a salt, the structure may show the parent alone. This is one part of the list. The calls rarely recur for the same compound in another form.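 Kinases, fused to nanoluciferase, were expressed in K562 cells; luminescence was measured every 4 h from 2 to 18 h as percent of control (DMSO = 100%, positive control = 0%). A time point is decreased if signal falls significantly (2 sigma). Hits were called by the authors by a rule that is not shown; the count of time points alone does not decide it.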
Biological target: SYK (UniProt P43405)
Assay: kinase-Nluc reporter destabilization hit call (1 = scored as downregulated) (binary); higher = compound decreases kinase abundance
Conditions: K562; 2-18 h

By UniProt entry, the sequences of proteins in these tests, tags left out. Where a name states a change or a piece, a line headed by the entry shows the natural chain unless it says otherwise.
UniProt P42680: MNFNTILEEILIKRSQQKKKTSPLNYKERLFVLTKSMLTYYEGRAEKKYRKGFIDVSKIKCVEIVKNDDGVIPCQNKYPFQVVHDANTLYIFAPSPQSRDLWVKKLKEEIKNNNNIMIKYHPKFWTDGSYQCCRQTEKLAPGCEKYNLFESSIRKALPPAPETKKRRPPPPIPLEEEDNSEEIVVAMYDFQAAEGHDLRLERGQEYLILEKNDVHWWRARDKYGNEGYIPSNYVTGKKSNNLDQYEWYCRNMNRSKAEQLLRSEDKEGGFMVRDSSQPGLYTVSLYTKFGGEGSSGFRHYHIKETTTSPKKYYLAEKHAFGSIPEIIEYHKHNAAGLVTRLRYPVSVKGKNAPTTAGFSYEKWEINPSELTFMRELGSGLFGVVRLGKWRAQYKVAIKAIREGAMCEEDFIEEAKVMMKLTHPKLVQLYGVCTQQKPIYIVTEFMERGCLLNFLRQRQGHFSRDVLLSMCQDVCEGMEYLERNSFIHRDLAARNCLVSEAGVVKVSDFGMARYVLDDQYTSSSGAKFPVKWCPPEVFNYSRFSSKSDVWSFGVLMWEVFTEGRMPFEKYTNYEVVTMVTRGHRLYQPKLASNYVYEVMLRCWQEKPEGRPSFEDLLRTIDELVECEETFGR

kinase-Nluc reporter destabilization hit call, inactive:
NC1(Cc2ccc(Cl)cc2)CCN(c2ncnc3[nH]ccc23)CC1 (10 µM) 0
O=C(O)c1cc(O)ccc1O [2,5-Dihydroxybenzoic acid] (10 µM) 0
C=C(CCC=C(C)C)[C@H]1CC[C@]2(C)[C@@H]1[C@H](O)C[C@@H]1[C@@]3(C)CC[C@H](O[C@@H]4O[C@H](CO)[C@@H](O)[C@H](O)[C@H]4O[C@@H]4O[C@H](CO)[C@@H](O)[C@H](O)[C@H]4O)C(C)(C)[C@@H]3CC[C@]12C [Ginsenoside Rk1] (10 µM) 0
CC(C)=CC[C@H](O)C1=CC(=O)c2c(O)ccc(O)c2C1=O [(-)-Alkannin] (2.5 µM) 0
N#Cc1c(-c2ccccc2)cc(-c2cc(Br)ccc2O)[nH]c1=O (10 µM) 0
CCn1c(-c2nonc2N)nc2cnc(Oc3cccc(NC(=O)c4ccc(OCCN5CCOCC5)cc4)c3)cc21 (10 µM) 0
CO[C@H]1C[C@@H]2CC[C@@H](C)[C@@](O)(O2)C(=O)C(=O)N2CCCC[C@H]2C(=O)O[C@H]([C@H](C)C[C@@H]2CC[C@@H](O)[C@H](OC)C2)CC(=O)[C@H](C)/C=C(\C)[C@@H](O)[C@@H](OC)C(=O)[C@H](C)C[C@H](C)/C=C/C=C/C=C/1C [Rapamycin] (10 µM) 0
CC(C)=CCC[C@](C)(O[C@@H]1O[C@H](CO)[C@@H](O)[C@H](O)[C@H]1O)[C@H]1CC[C@]2(C)[C@@H]1[C@H](O)C[C@@H]1[C@@]3(C)CC[C@H](O)C(C)(C)[C@@H]3[C@@H](O[C@@H]3O[C@H](CO)[C@@H](O)[C@H](O)[C@H]3O[C@@H]3O[C@@H](C)[C@H](O)[C@@H](O)[C@H]3O)C[C@]12C [Ginsenoside Re] (10 µM) 0
Cn1c(=O)c(F)c(Nc2ccc(I)cc2F)c2c(=O)n(C[C@@H](O)CO)cnc21 (10 µM) 0

Biological target: TEC (UniProt P42680)
Assay: as above
Conditions: K562; 2-18 h

kinase-Nluc reporter destabilization hit call, inactive:
NCc1ccc(Nc2ncc(F)c(Nc3ccccc3)n2)cc1 (10 µM) 0
C=C(C)C(=O)Nc1cccc(-c2ncnc3[nH]cc(C(=O)OCC)c23)c1 (10 µM) 0
CCOc1cc(C(=O)N2CCC(N3CCN(C)CC3)CC2)ccc1Nc1ncc2c(n1)N(C1CCCC1)c1ccccc1C(=O)N2C (10 µM) 0
CCOc1ccc(C(=O)Nc2ncc([N+](=O)[O-])s2)cc1 (10 µM) 0
CNC(=O)Nc1ccc(-c2cc(-c3ccnc(Nc4ccc(C)c(S(=O)(=O)N(C)C)c4)n3)ccn2)cc1 [hSMG-1 inhibitor 11e] (2.5 µM) 0
CNC(=O)c1ccc(-c2cnc3cnc(C(=O)N(C)c4ccc(Cl)cc4)cn23)cc1 (2.5 µM) 0
COc1cccc(-n2c(=O)[nH]c3cc(Cl)n(-c4ccc(-c5cccc(OC)c5O)cc4)c3c2=O)c1 (2.5 µM) 0
O=C(Nc1cccnc1)c1cc(C(=O)c2c(F)cccc2Br)c[nH]1 (10 µM) 0
CN(CC(=O)N(Cc1ccc(C2CCCCC2)cc1)c1ccc(C(=O)O)cc1)S(=O)(=O)c1c(F)c(F)c(F)c(F)c1F (2.5 µM) 0
COc1c(NC(=O)C(=O)c2ccc(OCCN3CCOCC3)c3ccccc23)cc(C(C)(C)C)cc1NS(C)(=O)=O (2.5 µM) 0
CC(C)CC1(O)CCN(C(=O)c2ccc(NS(=O)(=O)c3cccc4nccnc34)cc2)CC1 (10 µM) 0
O=C(/C=C/c1ccc(O)c(O)c1)c1ccc(O[C@@H]2O[C@H](CO)[C@@H](O)[C@H](O)[C@H]2O)c(O)c1O [Marein] (10 µM) 0
Cc1cc2cc(Nc3ccnc(Nc4ccc5[nH]c(C)cc5c4)n3)ccc2[nH]1 (2.5 µM) 0
Cc1cc(Nc2cc(Cl)nc(Oc3ccc([N+](=O)[O-])cc3)n2)n[nH]1 [Autophinib] (2.5 µM) 0
Fc1ccc(-c2nc(-c3ccccc3F)[nH]c2-c2ccncc2)cc1 (2.5 µM) 0
OC(COc1ccc(C(F)(F)F)cc1)CN(Cc1ccccc1)Cc1ccccc1 (stereo not drawn) (2.5 µM) 0
COc1ccc2[nH]cc(/C=C3\C(=O)Nc4ccc(NC(=O)CCN5CCCCC5)cc43)c2c1 (2.5 µM) 0
CS(=O)(=O)c1ccc(-c2noc(C(F)(F)F)c2-c2ccccc2)cc1 (10 µM) 0
COCCO[C@@H]1[C@H](O)[C@@H](CO)O[C@H]1n1cnc2c(=O)[nH]c(N)nc21 [2′-O-(2-Methoxyethyl)guanosine] (10 µM) 0
Cn1cnc(-c2cc3nccc(Oc4ccc(NC(=S)NC(=O)Cc5ccccc5)cc4F)c3s2)c1 [MGCD-265 analog] (10 µM) 0
Cc1noc(C)c1-c1ccc(-c2cc(C(N)=O)c(NC(N)=O)s2)c(O[C@H]2CCNC2)c1 (10 µM) 0
Cc1c(CN2CCN(S(C)(=O)=O)CC2)sc2c(N3CCOCC3)nc(-c3cnc(N)nc3)nc12 (2.5 µM) 0
CC(C)CN(CC(=O)N1CCN(CC(OCc2ccc3ccccc3c2)c2ccc(Cl)cc2Cl)CC1)CC(C)C (stereo not drawn) [LYN-1604 (dihydrochloride)] (2.5 µM) 0
CC/C=C\C/C=C\C/C=C\CCCCCCCC(=O)O [α-Linolenic acid] (10 µM) 0
Nc1ncnc2c1c(-c1ccc(Oc3ccccc3)cc1)nn2C1CCNCC1 [N-piperidine Ibrutinib (hydrochloride)] (10 µM) 0
CC(C)NC(=O)N1CC[C@H](NC2=Nc3cc(F)ccc3N(CC(F)F)c3ccc(Cl)cc32)C1 (10 µM) 0
O=C(Nc1cc(Oc2cc(F)c(NC(=O)C3(C(=O)Nc4ccc(F)cc4)CC3)cc2F)ccn1)C1CC1 [Altiratinib] (10 µM) 0
COCCOc1ccc(-c2cn(-c3ccccc3)c3nc[nH]c(=O)c23)cc1 (10 µM) 0
Cc1ccc2nc(NC(=O)CSc3nc4c(c(=O)n3-c3ccccc3)SCC4)sc2c1 (2 µM) 0
C[C@]1(O)CCC[C@@H]1n1c(=O)c(C(F)F)cc2cnc(NC3CCN(S(C)(=O)=O)CC3)nc21 (10 µM) 0
NC1(Cc2ccc(Cl)cc2)CCN(c2ncnc3[nH]ccc23)CC1 (10 µM) 0
O=C(O)c1cc(O)ccc1O [2,5-Dihydroxybenzoic acid] (10 µM) 0
C=C(CCC=C(C)C)[C@H]1CC[C@]2(C)[C@@H]1[C@H](O)C[C@@H]1[C@@]3(C)CC[C@H](O[C@@H]4O[C@H](CO)[C@@H](O)[C@H](O)[C@H]4O[C@@H]4O[C@H](CO)[C@@H](O)[C@H](O)[C@H]4O)C(C)(C)[C@@H]3CC[C@]12C [Ginsenoside Rk1] (10 µM) 0
CC(C)=CC[C@H](O)C1=CC(=O)c2c(O)ccc(O)c2C1=O [(-)-Alkannin] (2.5 µM) 0
N#Cc1c(-c2ccccc2)cc(-c2cc(Br)ccc2O)[nH]c1=O (10 µM) 0
CCn1c(-c2nonc2N)nc2cnc(Oc3cccc(NC(=O)c4ccc(OCCN5CCOCC5)cc4)c3)cc21 (10 µM) 0
CO[C@H]1C[C@@H]2CC[C@@H](C)[C@@](O)(O2)C(=O)C(=O)N2CCCC[C@H]2C(=O)O[C@H]([C@H](C)C[C@@H]2CC[C@@H](O)[C@H](OC)C2)CC(=O)[C@H](C)/C=C(\C)[C@@H](O)[C@@H](OC)C(=O)[C@H](C)C[C@H](C)/C=C/C=C/C=C/1C [Rapamycin] (10 µM) 0
CC(C)=CCC[C@](C)(O[C@@H]1O[C@H](CO)[C@@H](O)[C@H](O)[C@H]1O)[C@H]1CC[C@]2(C)[C@@H]1[C@H](O)C[C@@H]1[C@@]3(C)CC[C@H](O)C(C)(C)[C@@H]3[C@@H](O[C@@H]3O[C@H](CO)[C@@H](O)[C@H](O)[C@H]3O[C@@H]3O[C@@H](C)[C@H](O)[C@@H](O)[C@H]3O)C[C@]12C [Ginsenoside Re] (10 µM) 0
Cn1c(=O)c(F)c(Nc2ccc(I)cc2F)c2c(=O)n(C[C@@H](O)CO)cnc21 (10 µM) 0
